Measured values reported in doi:10.1101/2022.06.09.495453.
These are yes or no findings as the source states them, for the method shown. Some entries that bind do so weakly or less than the wild type. For part of these data: Sequences can lack the tags named with a protein.

The chains behind the UniProt entries cited, without tags or fusion partners. Where a name states a change or a piece, a line headed by the entry shows the natural chain unless it says otherwise.
UniProt Q9UI95, whole entry: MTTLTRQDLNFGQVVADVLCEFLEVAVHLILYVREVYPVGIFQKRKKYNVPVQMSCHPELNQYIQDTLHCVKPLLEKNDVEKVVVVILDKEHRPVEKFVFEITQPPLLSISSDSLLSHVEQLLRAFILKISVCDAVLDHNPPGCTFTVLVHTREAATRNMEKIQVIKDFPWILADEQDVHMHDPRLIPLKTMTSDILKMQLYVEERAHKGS

Legend:
[1] = target: T1, SHLD3 (full length) (human) (UniProt Q6ZNX1); test: co-purification
T1 sequence: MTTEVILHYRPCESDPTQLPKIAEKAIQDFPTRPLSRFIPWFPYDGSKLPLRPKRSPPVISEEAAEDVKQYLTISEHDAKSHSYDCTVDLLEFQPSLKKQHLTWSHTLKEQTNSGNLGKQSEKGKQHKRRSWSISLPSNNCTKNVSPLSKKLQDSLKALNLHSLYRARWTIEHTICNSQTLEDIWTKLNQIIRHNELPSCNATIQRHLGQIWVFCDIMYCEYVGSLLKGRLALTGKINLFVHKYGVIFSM

[2] = target: T2, MBP-SHLD3^45-60 (human) (UniProt Q6ZNX1); test: pull-down
T2 sequence: DGSKLPLRPKRSPPVI

binding [1]	binding [2]	Substance
binds		REV7^R124A of the SHLD3-SHLD2^1-95-REV7^R124A complex (from UniProt Q9UI95 1-211)
binds		REV7 of the SHLD3-SHLD2^1-95-REV7 ternary complex (Shieldin) (from UniProt Q9UI95 1-211)
	binds	REV7^WT (from UniProt Q9UI95 1-211)
